Our source for the binding values is patent US20110250213A1 (JN BIOSCIENCES, published 2011).

These are yes or no findings as the source states them, for the method shown. For some of these results: A result given as binding can be weak or reduced; the word gives no strength.

The target in one assay is dog CD122 (dog). As to the kind of experiment: assay not specified.
Assay [1] has as its target HuD1/HuD2 (human). The assay can be described thus: flow cytometry on HEK293 cells expressing HuD1/HuD2 and its mutants, antibody 100 ng/ml.
The next assay has as its target HuD1/MoD2 (human; mouse). The assay can be described thus: flow cytometry on transfected HEK293 cells, antibody 5 µg/ml.
Assay [2] concerns the target HuD1/HuD2 (human). The description is as above.
For assay [3], the target named is HuD1 (human). The assay can be described thus: flow cytometry on transfected HEK293 cells.
The target of a further assay is MoD1/MoD2 (mouse). As to the kind of experiment: flow cytometry on transfected HEK293 cells.
Another assay concerns the target MoD1/HuD2 (mouse; human). The assay can be described thus: flow cytometry on transfected HEK293 cells.
A further assay deals with HuD2 (human). As to the kind of experiment: flow cytometry on transfected HEK293 cells.
For assay [4], the target named is HuD1/HuD2 (human). As to the kind of experiment: FACS on HEK293 cells expressing CD122 constructs, PE-labeled goat anti-human IgG.
For assay [5], the target named is HuD1 (human). As to the kind of experiment: flow cytometry on transfected HEK293 cells, antibody 5 µg/ml.

B1: ABC101 (antibody, mouse IgG2b, V domains shown)
VH: DVQLQESGPGLVKPSQTVSLTCTVTGYSITNDNHWWNWIRQVSGSKLEWMGYIDSSGSSDNNPSLKSQISITRDTSKNQLFLQLNSVTIEDIGTYYCARGGGRDYYGMDYWGQGTSVTVSS
VL: DIVLTQSPASLAVSLGQRATISCRASQSVSTSSYSYVHWYQQKPGQPPKLLIKYASNLESGVPARFSGSGSGTDFTLNIHPVEEEDTATYYCQHSWDIPFTFGGGTKLEIK
notes: Mouse IgG2b/kappa purified from hybridoma; also called mouse anti-human CD122 monoclonal antibody ABC101
Consider B1, for which the binding result is on record as “no binding” in the assay with dog CD122 (dog); “binds” with HuD1/HuD2 (human) [1]; “binds” in the assay with HuD1/MoD2 (human; mouse); “binds” with HuD1/HuD2 (human) [2]; “no binding (tested: 5 µg/ml)” with HuD1 (human) [3]; “no binding (tested: 5 µg/ml)” in the assay with MoD1/MoD2 (mouse). Moreover, the binding result with MoD1/HuD2 (mouse; human) and in the assay with HuD2 (human) was “no binding (tested: 5 µg/ml)” each time.

B2: HuABC101 (antibody, V domains shown)
VH: QVQLQESGPGLVKPSQTLSLTCTVSGYSITNDNHWWNWIRQHPGKGLEWMGYIDSSGSSDNNPSLKSQITISRDTSKNQLSLKLSSVTAADTAVYYCARGGGRDYYGMDYWGQGTTVTVSS
VL: DIVMTQSPDSLGVSLGERATINCRASQSVSTSSYSYVHWYQQKPGQPPKLLIKYASNLESGVPDRFSGSGSGTDFTLTISSLQAEDVAVYYCQHSWDIPFTFGQGTKLEIK
B2: the binding result with HuD1/HuD2 (human) [4] is “binds”.

B3: ABC2 (antibody, mouse IgG1, V domains shown)
VH: EVKLVESGGGLVQPGGSLRLSCATSGFTFSDFYMEWVRQPPGKRLEWIAASRNKANDYTTEYSASVKGRFIVSRDTSQSILYLQMNALRAEDTAIYYCARSYYRYDGMDYWGQGTSVTVSS
VL: QVVLTQSPVIMSASPGEKVTMTCSAISSVSYMYWYQQKPGSSPRLLIYDTSNLVSGVPVRFSGSGSGTSYSLTISRMEAEDAATYYCQQWNTYPYTFGGGTKLEIK
notes: Mouse IgG1/kappa purified from hybridoma; also called mouse anti-human CD122 monoclonal antibody ABC2
Consider B3, for which the binding result with dog CD122 (dog) is given as “no binding”; with HuD1/HuD2 (human) [1], “binds”; in the assay with HuD1 (human) [5], “binds”.

B4: HuABC2 (antibody, V domains shown)
VH: EVQLVESGGGLVQPGGSLRLSCAASGFTFSDFYMEWVRQAPGKGLEWIAASRNKANDYTTEYSASVKGRFIVSRDDSKNSLYLQMNSLKTEDTAVYYCARSYYRYDGMDYWGQGTTVTVSS
VL: EIVLTQSPATLSLSPGERATLSCSAISSVSYMYWYQQKPGQAPRLLIYDTSNLVSGVPARFSGSGSGTDYTLTISSLEPEDFAVYYCQQWNTYPYTFGGGTKVEIK
As to B4, the binding result with HuD1/HuD2 (human) [4] was “binds”.
